From PubChem BioAssay AID493014 (National Center for Advancing Translational Sciences (NCATS), 2011)
Out of some 340,000 compounds screened, about 170 (0.05%) were called active. The inconclusive results got no clear call from the source; some entries with a clear call stand among them for comparison. Calls come from the whole dose curve; as a rule, active = well fitted inhibition curve with a large enough effect in the signal ratio, with a control signal flat (not every such curve was filed as active); inconclusive = small, poorly fitted or top-dose-only effect, or effect the other way, or a change in a side signal; inactive = flat fitted curve, though single readings scatter; the % refers to the signal ratio. Potencies of inconclusive entries are doubtful fits and often do not repeat.

Assay: qHTS Assay to Find Inhibitors of Chronic Active B-Cell Receptor Signaling;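 for activity change, negative = inhibition: plate controls were basal doxycycline-induced cells for no effect and cells given 10 µM MG132 for full effect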
Conditions: ABC-DLBCL IkBa-CBG/CBR reporter, luminescence ratio (green luciferase fused to IkBa over red control in TMD8 lymphoma cells), 4 h; activity change, negative = inhibition: at 46.1 µM (top of the series) unless noted
Method in brief: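 Doxycycline induced both beetle luciferases in TMD8 lymphoma cells; IKK-driven degradation limits the IkappaBalpha-fused green signal, while red luminescence normalises for cell number and nonspecific effects. Compounds tested up to 46 uM, 4 hrs.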
Potency is the fitted concentration of half-maximal effect.

Row | Compound | Potency | activity change, negative = inhibition
1 | COc1ccc(-c2nnc(SCC(=O)c3ccc(O)cc3O)o2)cc1 | inconclusive: 11.2 µM [falling, partial curve] | –
2 | COc1cc(NC(=O)c2cccc([N+](=O)[O-])c2)ccc1NC(=O)c1ccco1 | – | inconclusive: -0.462%
3 | O=C(O)/C=C/C(=O)Nc1ccc(C2(c3ccc(NC(=O)/C=C/C(=O)O)cc3)c3ccccc3-c3ccccc32)cc1 | – | inconclusive: 5.22%
4 | CCOC(=O)Cc1csc(NC(=O)/C=C/c2ccc(Br)o2)n1 | inconclusive: 11.2 µM [falling, partial curve] | –
5 | COCCN(Cc1cn(C)nc1-c1ccc(Oc2ccccc2)cc1)C(C)C | – | inconclusive: 0.163%
6 | O=C(COC(=O)c1cc(S(=O)(=O)NCc2ccccc2)ccc1O)c1cc2ccccc2o1 | inconclusive: 31.6 µM [falling, partial curve, poor fit] | –
7 | COc1ccc(C(=O)CSc2nc3[nH]ncc3c(=O)[nH]2)cc1 | – | inconclusive: -2.6%
8 | CN(Cc1ccccc1)C(=O)CSc1nc2ccccc2c(=O)n1Cc1ccco1 | – | inconclusive: 5.59%
9 | O=[N+]([O-])c1cccc(/C=N/n2c(C3CCCCC3)n[nH]c2=S)c1 | – | inactive
10 | CCN(CC)CCCNC(=O)c1ccc2c(c1)NC(=O)C(CS(=O)(=O)Cc1ccc(F)cc1Cl)N2 (stereo unspecified) | – | inactive
11 | CC(=O)NN1C(=O)/C(=C/c2ccc(Br)o2)SC1=S | inconclusive: 20.6 µM [falling, single point] | –
12 | O=C(CC(=O)c1ccccc1)Nc1ccccn1 | inconclusive: 35.5 µM [rising, single point] | –
13 | Cc1ccc(O)c(NC(=O)c2cc([N+](=O)[O-])ccc2Cl)c1 | inconclusive: 22.4 µM [falling, single point] | –
14 | O=c1sc2ccccc2n1CCCOc1ccccc1 | – | inconclusive: 11%
15 | O=C(Nc1ccc(O)c(C(=O)O)c1)c1cccc(NC(=O)c2ccco2)c1 | inconclusive: 22.4 µM [falling, single point] | –
16 | CC1Sc2ccc(C(=O)Nc3ncccc3O)cc2NC1=O (stereo unspecified) | inconclusive: 5.17 µM [falling, partial curve] | –
17 | Cc1ccc(NC(=O)COC(=O)CC2SC(N3CCCC3)=NC2=O)cc1 (stereo unspecified) | – | inactive
18 | O=C(Nc1c(C(=O)O)[nH]c2ccccc12)c1cccc(C(F)(F)F)c1 | – | inconclusive: 14.6%
19 | COC(C[C@@H]1O[C@@H]1[C@H](O)COCc1ccccc1)OC | – | inconclusive: 5.36%
20 | O=C(Cn1cnc([N+](=O)[O-])c1)Nc1cc(Oc2ccc(Cl)cc2Cl)cc([N+](=O)[O-])c1 | – | inconclusive: 22.8%
21 | O=C(Nc1nccs1)C1CCCN(S(=O)(=O)c2cccnc2)C1 (stereo unspecified) | – | inconclusive: 7.79%
22 | Cc1ccc(-c2nnc(N(C)C(=O)c3cccnc3)s2)cc1 | – | inconclusive: 1.35%
23 | CCOCCCN(C)C1CCN(C(=O)c2oc3ccccc3c2NC(=O)c2ccc(F)cc2)CC1 | – | inactive
24 | CCOC(=O)/C=C(\C)N1N=C(c2ccccc2)CC1c1ccccc1 (stereo unspecified) | – | inconclusive: -9.45%
25 | COc1ccc(C2/C=C\CN(S(=O)(=O)c3ccc(C)cc3)[C@H](Cc3ccccc3)C(=O)N2Cc2ccc(F)cc2)cc1 (stereo partly specified) | – | inconclusive: 1.3%
26 | CCN1C(=O)N/C(=C/c2ccc(C)o2)C1=O | inconclusive: 20.6 µM [cytotoxic, single point] | –

Complete entries, looked up by structure.
CCOC(=O)/C=C(\C)N1N=C(c2ccccc2)CC1c1ccccc1 (stereo unspecified) as listed: activity change, negative = inhibition: inconclusive: -9.45%
O=C(COC(=O)c1cc(S(=O)(=O)NCc2ccccc2)ccc1O)c1cc2ccccc2o1 as listed: Potency: inconclusive: 31.6 µM [falling, partial curve, poor fit]
CCN(CC)CCCNC(=O)c1ccc2c(c1)NC(=O)C(CS(=O)(=O)Cc1ccc(F)cc1Cl)N2 (stereo unspecified) as listed: activity change, negative = inhibition: inactive
O=C(CC(=O)c1ccccc1)Nc1ccccn1 as listed: Potency: inconclusive: 35.5 µM [rising, single point]

(list continues)

Row | Compound | Potency | activity change, negative = inhibition
27 | COC(=O)C1=CN(Cc2ccccc2)C=C(C(=O)OC)C1c1cc(F)ccc1F | – | inconclusive: -5.46%
28 | C=CCC(Nc1ccccc1)C12C=CC(O1)C(C(=O)OC)=C2C(=O)OC (stereo unspecified) | – | inconclusive: -14.3%
29 | O=C(Nc1cccc2ncccc12)c1ccc(OCc2ccccc2)cc1 | – | inactive
30 | Cc1cc(-n2c(C)nc3ccccc3c2=O)ccc1NC(=O)c1cccc([N+](=O)[O-])c1C | – | inactive
31 | COc1ccc(NC(=O)CC(=O)Nc2ccc(OC)cc2OC)c(OC)c1 | – | inconclusive: -2.39%
32 | O=C(Nc1cccc(-c2nc3ccccc3s2)c1)c1cc(=O)c2ccccc2o1 | inconclusive: 20.6 µM [falling, partial curve] | –
33 | CCNC(=O)CC1SC(=Nc2ccc(Cl)cc2)N(CC)C1=O (stereo unspecified) | – | inconclusive: -1.05%
34 | CCOP(=O)(OCC)C(Nc1cc(Cl)cc(Cl)c1)c1cccc(O)c1 (stereo unspecified) | – | inconclusive: -12%
35 | O=C1C(=O)N(c2ccccn2)C(c2cccc(F)c2)/C1=C(/O)c1ccccc1 (stereo unspecified) | – | inactive
36 | Cc1cc(C)cc(NC(=O)[C@H](Cc2c[nH]c3ccccc23)NC(=O)[C@@H]2Cc3ccccc3CN2)c1 | inconclusive: 11.2 µM [falling, partial curve] | –
37 | Cc1ccc(C(=O)Nc2cccc(C(=O)NCc3ccccc3)c2)cc1 | – | inactive
38 | c1ccc2c(-n3cccn3)cccc2c1 | – | inconclusive: 1.23%
39 | O=C1Nc2ccc(Br)cc2/C1=C/C(=O)c1ccc2c(c1)OCO2 | – | inconclusive: 23.8%
40 | N#Cc1c(C(F)(F)F)cc(-c2cccs2)nc1SCC(=O)O | – | inconclusive: 22.3%
41 | Brc1ccc(-c2nc(-c3ccncc3)no2)cc1 | – | inconclusive: 11.5%
42 | CN(C)CCN=Cc1c(O)n(Cc2ccc3c(c2)OCO3)c(=O)c2ccccc12 | – | inactive
43 | COC(=O)CSc1nc2cc3c(cc2cc1C)OCO3 | – | inactive
44 | COC(=O)c1cc(C(=O)c2cc(Cl)ccc2O)coc1=N | inconclusive: 25.1 µM [falling, single point] | –
45 | COc1ccc(NC(=O)C2CCCN(S(=O)(=O)c3cccc4nonc34)C2)c(OC)c1 (stereo unspecified) | – | inconclusive: 0.344%
46 | CC(=O)C(N=Nc1ccccc1)(Sc1nnc(-c2ccccc2)n1-c1ccccc1)C(=O)Nc1ccccc1 (stereo unspecified) | – | inactive
47 | O=C(Nc1ccc(N2CCCCC2)cc1)c1ccc2c(c1)OCCO2 | – | inconclusive: -18.9%
48 | Cc1ccc(S(=O)(=O)c2c(C)nn(C(C)(C)C)c2OC(=O)c2ccc(Br)o2)cc1 | – | inactive
49 | COC(=O)c1ccc(C23CC4(C2)[C@H](CN(CC2CCCCC2)[C@@H]4c2ccccc2)C3c2ccccc2)cc1 (stereo partly specified) | – | inactive
50 | O=C(Nc1ccccn1)NC12CC3CC(CC(C3)C1)C2 | – | inactive
51 | CC1=Nc2ccc(C)cc2/C1=C/c1c(N)n2c(S(=O)(=O)C(C)C)nsc2nc1=O | – | inconclusive: -14.5%
